Assay results published in PMC8635433.
These are yes or no findings as the source states them, for the method shown. Some binding calls cover weakened binding; strength is not graded here.

Protein sequences, listed by entry. Tags and fused reporters are not part of them. Residues count along the entry.
UniProt P78310, residues 20-365: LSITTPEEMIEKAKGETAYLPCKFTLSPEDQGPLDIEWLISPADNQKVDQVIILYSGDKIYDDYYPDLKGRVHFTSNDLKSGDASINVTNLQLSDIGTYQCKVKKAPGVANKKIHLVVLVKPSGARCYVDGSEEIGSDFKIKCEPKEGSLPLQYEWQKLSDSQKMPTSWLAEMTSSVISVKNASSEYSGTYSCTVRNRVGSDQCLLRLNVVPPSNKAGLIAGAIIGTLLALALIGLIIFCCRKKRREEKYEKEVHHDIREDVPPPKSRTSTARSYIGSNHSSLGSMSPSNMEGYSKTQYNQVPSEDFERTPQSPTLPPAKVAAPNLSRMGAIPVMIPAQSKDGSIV

Target: CAR on CHO-CAR cells (UniProt P78310)
Test: flow cytometry on cells; antibody binding inhibition: serial dilutions of fiber knob (0.00001 to 100 μg per 10^5 cells) on CHO-CAR or CHO-BC1 cells, 30 min on ice, then anti-CAR RmcB or anti-CD46 MEM-258 and Alexa Fluor 488 secondary antibody; IC50 by nonlinear regression; only the binder purified

B1: HAdV-C5 fiber knob protein (domain or fragment, UniProt P11818 386-581)
chain: TGAITVGNKNNDKLTLWTTPAPSPNCRLNAEKDAKLTLVLTKCGSQILATVSVLAVKGSLAPISGTVQSAHLIIRFDENGVLLNNSFLDPEYWNFRNGDLTEGTAYTNAVGFMPNLSAYPKSHGKTAKSNIVSQVYLNGDKTKPVTLTITLNGTQETGDTTPSAYSMSFSWDWSGHNYINEIFATSSYTFSYIAQE
binding: binds
